From paper PMC7997955
Results are given in words; binding and its absence hold for the method and conditions named.

By UniProt entry, the sequences of proteins in these tests, tags left out. Where a name states a change or a piece, a line headed by the entry shows the natural chain unless it says otherwise. Chains listed by the source or under a name are the forms on record and can include a tag or linker. Residues count along the entry.
UniProt Q6PGQ7, residues 1-224: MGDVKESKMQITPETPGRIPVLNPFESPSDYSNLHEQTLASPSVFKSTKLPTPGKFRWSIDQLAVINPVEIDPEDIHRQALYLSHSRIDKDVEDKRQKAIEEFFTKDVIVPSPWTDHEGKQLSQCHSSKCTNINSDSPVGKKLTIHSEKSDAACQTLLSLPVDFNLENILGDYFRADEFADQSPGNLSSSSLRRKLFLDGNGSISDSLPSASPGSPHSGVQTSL
Plk1^1–330 KD^WT (kinase domain of Polo-like kinase 1) (P53350, form named): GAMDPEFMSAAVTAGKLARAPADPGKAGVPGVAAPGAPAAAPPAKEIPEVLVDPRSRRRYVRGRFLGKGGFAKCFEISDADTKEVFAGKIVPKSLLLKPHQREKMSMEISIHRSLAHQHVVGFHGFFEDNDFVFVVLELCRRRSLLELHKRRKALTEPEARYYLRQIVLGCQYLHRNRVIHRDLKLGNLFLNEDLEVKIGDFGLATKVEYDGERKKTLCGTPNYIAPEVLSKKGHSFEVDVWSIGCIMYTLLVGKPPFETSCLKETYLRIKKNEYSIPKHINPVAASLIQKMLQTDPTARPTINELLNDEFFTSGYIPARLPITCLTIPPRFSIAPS

How the values were obtained:
[1] = molecular target: biotinylated AVI-tagged Bora^1–224 (human) (UniProt Q6PGQ7); assay: pull-down; as a2, but with a mix of AURKA^WT and Plk1 KD^WT added together to biotinylated AVI-Bora^1–224 or AVI-pBora^1–224 on streptavidin sepharose; both purified
[2] = molecular target: biotinylated AVI-tagged Bora^1–224 (human) (UniProt Q6PGQ7); assay: pull-down; 500 ng biotinylated AVI-Bora^1–224, phosphorylated or not by CyclinA2-Cdk2, mixed with AURKA^WT or Plk1 KD^WT (molar ratio 1:1), captured on streptavidin sepharose; on ice; 25 mM Tris pH 7.5, 150 mM NaCl, 20 mM MgCl2, 1 mM DTT, 0.05% Tween 20; immunoblot; both purified

Q: “Plk1^1–330 KD^WT (kinase domain of Polo-like kinase 1) (from UniProt P53350 1-330) (domain or fragment)” was tested. Which binding [1] did it give?
A: no binding

Q: What about the binding [2] of the same substance?
A: no binding
